According to PubChem BioAssay AID493014 (National Center for Advancing Translational Sciences (NCATS), 2011):
This is one part of the list. The main result of the screen is listed elsewhere. These columns were measured beside it and carry no call. Compounds called inactive in the main read-out are mostly missing here. Potencies come from curve fits of mixed quality, noted in brackets.

Assay: qHTS Assay to Find Inhibitors of Chronic Active B-Cell Receptor Signaling
Settings: ABC-DLBCL IkBa-CBG/CBR reporter, luminescence ratio (green luciferase fused to IkBa over red control in TMD8 lymphoma cells), 4 h
In short: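 TMD8 ABC-DLBCL cells carrying doxycycline-inducible green luciferase fused to IkappaBalpha plus unfused red luciferase were exposed to compounds (up to 46 uM) for 4 hrs at 37C. Activity came from the overlap-corrected green/red luminescence ratio.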

[1] = measured here: CBR red luminescence, cell number
[2] = measured here: IkBa-CBG green luminescence

Compound | AC50 [1] | AC50 [2]
CC(=O)Nc1ccc(N/C=C/C(=O)C(C)(C)C)cc1 | 7.31 µM [rising, partial curve, poor fit] | 
CNc1ccccc1C(=O)OCC(=O)c1ccc(F)cc1 | 12.6 µM [falling, partial curve] | 
CC(=O)Nc1ccc(C2=NN(C)C(=NCc3ccccc3)SC2)cc1 | 20 µM [rising, partial curve, poor fit] | 
CCc1ccccc1N1C(=O)CC(N2CCc3ccccc32)C1=O (stereo not drawn) | 7.94 µM [falling, partial curve] | 
COc1cccc(NC(=O)CC2Oc3ccccc3NC2=O)c1 (stereo not drawn) | 28.2 µM [falling, single point] | 
COc1cccc(NC(=O)c2oc3ccc(S(=O)(=O)N4CCOCC4)cc3c2C)c1 | 11.2 µM [falling, partial curve, poor fit] | 
CN1CCN(c2cc(N3CCN(C(=O)c4ccco4)CC3)c3c4c(onc24)-c2ccccc2C3=O)CC1 | 25.1 µM [falling, single point] | 
CC1CCCCN1S(=O)(=O)c1ccc2[nH]c(=O)cc(C(=O)NCCc3ccc(Cl)cc3)c2c1 (stereo not drawn) | 0.631 µM [rising, full curve, poor fit] | 
CCN1CCc2nc(SCC(=O)Nc3ccc(OC)cc3)c(C#N)cc2C1 | 14.1 µM [rising, single point] | 
CCn1ccnc1CN(C)Cc1cn(-c2cc(C)ccc2C)nc1-c1ccccc1 | 15.8 µM [falling, single point] | 
O=C(c1ccc(Cl)cc1)N1CCCC(C(=O)N2CCCCC2)C1 (stereo not drawn) | 1 µM [falling, partial curve, poor fit] | 
O=C(NNc1nc(-c2ccccc2)cs1)c1ccccc1 | 35.5 µM [falling, single point] | 
O=C(CNC(=O)c1ccccc1)N/N=C/c1ccc([N+](=O)[O-])s1 | 15.8 µM [falling, partial curve, poor fit] | 
COc1cc(OC)cc(C(=O)Nc2cccc(NC(C)=O)c2)c1 | 9.2 µM [falling, partial curve] | 
CCCCCOC(=O)CCN1C(=O)/C(=C2\SC(=S)N(CCC(=O)OCCCCC)C2=O)SC1=S | 1.26 µM [falling, full curve, poor fit] | 
CCCC(=O)Nc1ccc2c(c1)nc(CN1CCN(C(=O)OCC)CC1)n2C | 0.158 µM [rising, full curve, poor fit] | 
O=C(c1ccco1)N1CCN(c2ncnc3c(-c4ccccc4)nsc23)CC1 | 1.58 µM [rising, partial curve, poor fit] | 
Cc1ccccc1NCC(=O)c1ccc(Br)cc1 | 35.5 µM [falling, single point] | 35.5 µM [falling, partial curve, poor fit]
O=C(O)c1cc2c(cc1NC(=O)C1CCCC1)OCCO2 | 2.91 µM [falling, single point] | 
Cc1cc(C)cc(C(=O)OCC(=O)N2CCCC2)c1 | 0.112 µM [rising, full curve, poor fit] | 

Compound | AC50 [1] | AC50 [2]
Cc1cc(NC(=O)CCc2ccccc2)c([N+](=O)[O-])cc1C | 13 µM [rising, partial curve] | 
COc1ccccc1OCCNC(=O)C1CC(=O)N(c2ccccc2OC)C1 (stereo not drawn) | 5.17 µM [rising, partial curve] | 
CCCn1c(SCC(=O)N2CCc3ccccc3C2)nc2c1c(=O)n(C)c(=O)n2C | 2.06 µM [falling, partial curve, poor fit] | 
CCc1ccc(CN2CCC(C(=O)Nc3ccc(Oc4ccccc4)nc3)CC2)o1 | 1.41 µM [rising, full curve, poor fit] | 
COc1ccccc1NC(=O)C(C)OC(=O)c1cc2ccccc2[nH]1 (stereo not drawn) | 11.6 µM [falling, partial curve] | 
COc1ccc(N2CCN(C(=O)c3ccccc3N(C)S(=O)(=O)c3ccc(C)cc3)CC2)cc1 | 3.98 µM [rising, full curve, poor fit] | 
Cc1ccc(-c2cc(C(=O)O)c3sc(N4CCCCC4)nc3n2)cc1 | 8.2 µM [rising, partial curve, poor fit] | 
O=[N+]([O-])c1ccc(NC(=S)NCCc2ccc(F)cc2)cc1 | 29.1 µM [falling, single point] | 29.1 µM [rising, single point]
COc1cc(C(=O)NCc2nnc(SCC(=O)Nc3nc4ccc(C)cc4s3)o2)cc(OC)c1OC | 0.651 µM [rising, full curve, poor fit] | 
CC(C)c1cccc(C(C)C)c1NC(=O)COC(=O)C1CCC1 | 0.00651 µM [rising, full curve, poor fit] | 
COc1cc(Br)cc(/C=C/c2ccc3cccc(O)c3n2)c1O | 4.47 µM [rising, full curve] | 3.16 µM [falling, full curve]
COC(=O)C(CC(C)C)NC(=O)c1cc(OC)c(OC)c(OC)c1 (stereo not drawn) | 9.2 µM [falling, partial curve, poor fit] | 
Cc1ccc(NC(=O)CN(C)C(=O)c2cc(C)on2)cc1 | 29.1 µM [rising, single point] | 
CCOC(=O)C1(Nc2nccs2)Sc2ccccc2NC1=O (stereo not drawn) | 7.08 µM [falling, full curve] | 
COCCNc1oc(-c2ccc(C)cc2)nc1C#N | 0.92 µM [rising, full curve, poor fit] | 
CCOC(=O)C1CCCN(C(=O)c2cc(-c3ccc(C)cc3)on2)C1 (stereo not drawn) | 2.82 µM [rising, full curve, poor fit] | 
O=C(c1cccc2ccccc12)N1CCC(N2CCN(c3ccccc3)CC2)CC1 | 3.98 µM [falling, partial curve, poor fit] | 
CCOc1ccccc1NC(=O)N1C2CCCC1CC(NC(=O)C1CC1)C2 (stereo not drawn) | 29.1 µM [falling, single point] | 
COC(=O)c1cc(Br)c(=O)n(CCc2ccc(O)cc2)c1 | 25.1 µM [falling, single point] | 
CC(C)n1ncc2c(C(=O)Nc3cccc(C#N)c3)cc(C3CC3)nc21 | 29.1 µM [falling, single point] | 

Record cards, as listed above:
`CCc1ccc(CN2CCC(C(=O)Nc3ccc(Oc4ccccc4)nc3)CC2)o1` in the list: AC50 [1]: 1.41 µM [rising, full curve, poor fit]
`COc1cc(Br)cc(/C=C/c2ccc3cccc(O)c3n2)c1O` in the list: AC50 [1]: 4.47 µM [rising, full curve]; AC50 [2]: 3.16 µM [falling, full curve]
